Values of other authors, collected in patent publication US12636295B2, “Compositions and methods for the treatment of obstructive sleep apnoea (OSA)” (Incannex Healthcare Limited, priority 2020, dated 2026).
Where two headings read alike, the source gives them in different places. For at least one compound, name, drawing or mass did not settle the structure.

Tested on: subjects with OSA
Details: Carley et al. 2018, cited from earlier work

CCCCCc1cc(O)c2c(c1)OC(C)(C)C1CCC(C)=CC21 (stereo not drawn) [Dronabinol]
Dronabinol AHI (2.5 mg/day, baseline AHI 28.2): 21.6
Reduction in AHI compared to baseline (%) (2.5 mg/day): 23.4%
Dronabinol AHI (10 mg/day, baseline AHI 26): 17.5
